Assay results published in the supplement of paper PMC7824004.
The list shows a part of the results. The data scatter; read single values as rough.

System: Candida albicans SN425
Assay: biofilm OD600 B-score; higher = more biofilm (less inhibition)
Settings: 10 µM; assay detail: High-throughput adherence inhibition optical density biofilm assay with C. albicans SN425 in RPMI-1640/MOPS pH 7.0, 384-well plates. …
Experimental: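 High-throughput adherence inhibition optical density biofilm assay with C. albicans SN425 in RPMI-1640/MOPS pH 7.0, 384-well plates. Compound (10 µM) was present only during the 90 min adherence step, then washed out, and the biofilm grew 24 h without compound. Biofilm was read as OD600 after removing the media. Scores are the difference from the mean in standard deviations and the plate B-score.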

Row | Compound | biofilm OD600 B-score
1 | COc1nc(N=C(N)N)nc2ccc(C)cc12 | 0.158
2 | Cc1cc(C)nc(NC(=O)CCCc2ccccc2)n1 | 1.41
3 | N#CCCNCCN1CCCC1=O | 0.792
4 | O=S(=O)(Nc1ccc2c(c1)OCO2)c1ccccc1 | -0.393
5 | Cc1onc(-c2ccccc2Cl)c1C(=O)NN | -2.61
6 | NC(=O)c1ccccc1NC(=O)CCSc1ccccc1 | -0.521
7 | O=C(O)Cn1c(=O)n(CC(=O)O)c2ccccc21 | 0.776
8 | O=C(Nc1cccnc1)C1CCCCC1 | -1.6
9 | CCc1ccc(OCCN2CCOCC2)cc1 | 1.91
10 | Cc1oc(CC(C)C)c(CN2CCCC2)c1C(=O)O | 2.43
11 | C/C=C(\C)CN1CCN(Cc2ccccc2)CC1 | -1.55
12 | CC(=O)c1ccc(Oc2ccc(N)cc2)cc1 | 1.07
13 | COC1=C(N2CCOCC2)C(=O)c2ccccc2C1=O | 0.328
14 | CN(C)CCN(C)Cc1cccc(Br)c1 | -0.413
15 | CC(C)(C)c1ccc(S(=O)(=O)N2CCNCC2)cc1 | -0.107
16 | O=C(Nc1ccccc1)Nc1nnc(-c2ccccc2)s1 | 0.28
17 | Cc1c(C(=O)N2CCC(C(N)=O)CC2)sc(N)c1C#N | -2.05
18 | COc1ccc(C(=O)Nc2cccc(NC(C)=O)c2)cc1OC | 1.45
19 | NC(=O)COc1ccc(NS(=O)(=O)Cc2ccccc2)cc1 | -8.93
20 | O=C(c1cccc(Cl)c1)N1CCC(C(=O)N2CCN(Cc3ccccc3)CC2)CC1 | 1.1

Looked up above.
biofilm OD600 B-score with COc1nc(N=C(N)N)nc2ccc(C)cc12 is entered as 0.158
biofilm OD600 B-score with COc1ccc(C(=O)Nc2cccc(NC(C)=O)c2)cc1OC is entered as 1.45
biofilm OD600 B-score with Cc1onc(-c2ccccc2Cl)c1C(=O)NN is entered as -2.61
biofilm OD600 B-score with O=S(=O)(Nc1ccc2c(c1)OCO2)c1ccccc1 is entered as -0.393

Additional compounds follow:

Row | Compound | biofilm OD600 B-score
21 | Cc1cccnc1NCC(O)COc1ccccc1 (stereo not given) | -0.708
22 | Cc1oc(-c2ccccc2)cc1C(N)=O | -0.534
23 | Cc1cccc(C)c1NC(=O)C1CCCCC1C(=O)O (stereo not given) | -0.188
24 | CCCC(=O)Nc1ccccc1NC(=O)c1ccc(Br)o1 | -0.378
25 | Cc1ccc(-c2ccc(C)cc2N)c(N)c1 | -2.78
26 | Cc1ccc(S(=O)(=O)NC(C)(C)C)cc1 | 2.12
27 | COc1ccc(N2CCN(C(=O)c3cccc(OC)c3)CC2)cc1 | -0.537
28 | C=CCSc1nc2ccc(OC)cc2[nH]1 | -0.437
29 | CNC(=O)COc1ccc(Br)cc1Cl | -0.914
30 | Nc1ccc(S(=O)(=O)NCCc2ccccc2)cc1 | 2.49
31 | O=C(Nc1nc(-c2ccccc2)cs1)c1ccncc1 | -0.0846
32 | CC(CC(=O)NCC1CCCO1)c1ccccc1 (stereo not given) | 2.36
33 | COc1ccccc1C(O)c1nccn1C (stereo not given) | 0.154
34 | CCOC(=O)Nc1nc(-c2ccccc2)c(C)s1 | 0.0861
35 | CCC(NC(=O)c1ccccc1NC(=O)c1ccccc1)C(=O)N1CCOCC1 (stereo not given) | -1.07
36 | COc1ccc(NC(=O)Cc2cccs2)cc1OC | 1.71
37 | C=C(C)CN(CC)Cc1cccc(O)c1 | 3.17
38 | Cc1c(N)cc(N)cc1C(=O)O | -2.42
39 | O=C(CSC1=NCCS1)NCc1ccco1 | -2.19
40 | Cc1ccc(NC(=O)c2cc(N)ccc2N2CCOCC2)cc1 | -1.36

Row | Compound | biofilm OD600 B-score
41 | COc1cccc(C(=O)Nc2ccccc2N2CCOCC2)c1 | -2.51
42 | NC(=O)C1CCN(Cc2c(F)cccc2Cl)CC1 | -1.7
43 | Cc1cccc(NS(=O)(=O)c2ccccc2)n1 | -1.61
44 | CCc1ccc(CN(C)CCN(C)C)cc1 | 1.16
45 | C/C=C(\C)CN1CCN(c2ccc(C)cc2)CC1 | -1.87
46 | CCOC(=O)N1CCC(NC2C3CC4CC(C3)CC2C4)CC1 (stereo not given) | -4.23
47 | Cc1nc2ccccc2c(=O)n1Cc1cccnc1 | 0.715
48 | CC(=O)NC1=C(N(C)C)C(=O)c2ccccc2C1=O | 2.09
49 | O=C(CSc1ncnc2nc[nH]c12)N1CCOCC1 | -2.57
50 | CCN1CCN(C(=O)CCCc2ccccc2)CC1 | 0.182
51 | OCC(O)CN(c1ccccc1)c1ccccc1 (stereo not given) | -1.35
52 | O=C(O)c1ccc(CNC(=O)C2CCCCC2C(=O)O)cc1 (stereo not given) | 0.621
53 | CCOc1ccccc1C(=O)NC(C)COC (stereo not given) | 0.426
54 | Cc1ccc(C)c(CN2CCCN(C)CC2)c1 | 2.01
55 | OC1CCN(CC2CC3C=CC2C3)CC1 (stereo not given) | 1.29
56 | CCC1CCC(NCC(C)(C)CN(C)C)CC1 (stereo not given) | 0.0769
57 | O=C(NCCc1cccc(Cl)c1)c1ccco1 | 2.43
58 | CS(=O)(=O)NC1CCN(Cc2ccccc2)CC1 | -0.0985
59 | COc1cccc(NC(=O)CCCC(=O)O)c1 | -0.325
60 | COc1ccccc1Cc1nc(-c2ccccn2)no1 | 0.684
